Measurements from PubChem BioAssay AID1347431 (National Center for Advancing Translational Sciences (NCATS), 2020).
The campaign covered roughly 1,200 compounds. Fewer than 10 were called active. Calls follow the shape of the dose curve; as a rule, active = well fitted curve in the direction sought with a large enough effect; inconclusive = small, poorly fitted or top-dose-only effect, or another doubt; inactive = no such curve, though single readings can be large or run the other way. This is one part of the list.

Experiment: Confirmatory qHTS assay for inhibitors of Activation Induced Cytidine Deaminase (AID): UDG signals; also: 0% is about no effect
Conditions: UDG coupled enzyme activity counter-screen; at 115 µM (top of the series) unless noted
Method in brief: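 Fluorescence at 560 nm excitation/665 nm emission reports UDG activity, read after NaOH quench of a 4 h room-temperature reaction of DJC20/DJC23 substrates with AID (1 uM, 4/3x) and UDG (2 U/mL, 4/3x); compounds at 7.32 nM - 114 uM final, preincubated 10 min.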

Row | SMILES | activity change, negative = inhibition
1 | Cc1ccc2nc(Cl)c3cc(C(=O)N4CCCCC4C)sc3c2c1 (stereo unspecified) | inactive: -1.83%
2 | CC(c1ccccc1)n1cc2c(c1-c1ccccc1Br)c(=O)n(C)c(=O)n2C (stereo unspecified) | inactive: -11.4%
3 | COc1ccccc1-c1nc2cc(NC(=O)c3ccccc3Cl)ccc2o1 | inactive: -0.488%
4 | Cc1nc(-c2ccc(F)cc2)sc1CCNC(=O)c1ccc(C(C)(C)C)cc1 | inactive: -7.49%
5 | COc1ccc(C(=O)Nc2nc3c(s2)Cc2cc(OC)ccc2-3)cc1 | inactive: -5.77%
6 | CCC1CN(C(=O)N2CCC(C(=O)N3CCN(c4cc(C)ccc4C)CC3)CC2)c2ccccc2O1 (stereo unspecified) | inactive: -9.59%
7 | CC1CCN(C(=O)C(C)Sc2nc(-c3ccccc3)cc(C(F)(F)F)n2)CC1 (stereo unspecified) | inactive: 0.843%
8 | O=C(CCCCCn1c(=O)[nH]c2ccccc2c1=O)NCc1ccc(Cl)cc1 | inactive: 2.09%
9 | COc1ccc(CCNC(=O)Cn2nc(C)c3c(C)n(-c4ccc(C)cc4)nc3c2=O)c(OC)c1 | inactive: -0.414%
10 | COc1cccc(CSc2nc(-c3ccccc3OC)nc3c2Cc2c(CO)cnc(C)c2O3)c1 | inactive: -5.53%
11 | Cc1cc(C)cc(-n2ccnc2SCC(=O)Nc2ccc(C)c(Cl)c2)c1 | inactive: -9.67%
12 | CCn1cc2nc(SCc3cccc(F)c3)n(CCc3ccccc3)c(=O)c2n1 | inactive: -8.95%
13 | COc1ccc(Br)cc1CNC(=O)c1cnc2sc(N3CCCCCC3)nn2c1=O | inactive: 12.5%
14 | COc1ccccc1Nc1c2c(nc3ccc(NC(=O)/C=C/c4cc(OC)c(OC)c(OC)c4)cc13)CCCC2 | inactive: -6.15%
15 | COc1ccc(CCNC(=O)c2c[nH]n3c(=O)c(Cc4ccccc4Cl)c(C)nc23)cc1OC | inactive: 0.446%
16 | O=C(NCC1CCN(Cc2ccccc2Cl)CC1)c1cc2ccc3cccnc3c2[nH]1 | inactive: -2.88%
17 | CCc1ccc(NC(=O)c2ccc3c(O)c(S(=O)(=O)c4ccccc4)c(=O)[nH]c3c2)cc1 | inactive: 12.1%
18 | [N-]=[N+]=Nc1ccc(C(=O)CSC[C@H](NC(=O)CC[C@H](N)C(=O)O)C(=O)NCC(=O)O)cc1 | inactive: 11.8%
19 | COc1cccc(C(=O)Nc2nc3nc(C)c(Cc4ccccc4)c(=O)n3[nH]2)c1 | inactive: 12.2%
20 | Cc1ccc2oc(C(=O)NCC(c3ccc(Cl)cc3)N3CCOCC3)c(C)c2c1 (stereo unspecified) | inactive: -1.52%
21 | COc1ccccc1CNC(=O)CSc1nc2nc(C)c(Cc3ccccc3C)c(C)n2n1 | inactive: 7.22%

Pulled one by one from above (four):
Row | SMILES | activity change, negative = inhibition
10 | COc1cccc(CSc2nc(-c3ccccc3OC)nc3c2Cc2c(CO)cnc(C)c2O3)c1 | inactive: -5.53%
18 | [N-]=[N+]=Nc1ccc(C(=O)CSC[C@H](NC(=O)CC[C@H](N)C(=O)O)C(=O)NCC(=O)O)cc1 | inactive: 11.8%
17 | CCc1ccc(NC(=O)c2ccc3c(O)c(S(=O)(=O)c4ccccc4)c(=O)[nH]c3c2)cc1 | inactive: 12.1%
7 | CC1CCN(C(=O)C(C)Sc2nc(-c3ccccc3)cc(C(F)(F)F)n2)CC1 (stereo unspecified) | inactive: 0.843%

(more compounds)

Row | SMILES | activity change, negative = inhibition
22 | CC(C)(C)c1ccc(C(=O)N2CCCC(c3nc4c(nnn4Cc4cccc(F)c4)c(=O)[nH]3)C2)cc1 (stereo unspecified) | inactive: -0.802%
23 | Cc1ccccc1Nc1c(-c2ccc(N3CCOCC3)cc2)nc2cccc(C)n12 | inactive: -1.27%
24 | Cc1cccc(-n2c3nc(=O)[nH]c(=O)c-3cc3ccc(Cl)cc32)c1C | inactive: -6.3%
25 | COc1ccc(OC)c(-c2noc(N3CCN(c4cccc(C(F)(F)F)c4)CC3)n2)c1 | inactive: -11.7%
26 | CCC(=O)Oc1c(Sc2ccc(C)cc2)c(C)nn1-c1ccccc1 | inactive: 5.23%
27 | CCOc1ccccc1C(=O)N1CCc2cc(OC)c(OC)cc2C1COc1ccc(OC)cc1 (stereo unspecified) | inactive: -15.4%
28 | COc1ccc(CN(Cc2ccco2)C(=O)COc2ccccc2Cl)cc1 | inactive: -7.93%
29 | N=c1n(CCN2CCCCC2)c2ccccc2n1CC(O)COc1ccccc1 (stereo unspecified) | inactive: 1.57%
30 | Cc1ccc(Cl)cc1N1CCN(CCCNC(=O)c2ccc3nc(N4CCCCC4)sc3c2)CC1 | inactive: -7.12%
31 | CC(C)Oc1ccc(C(=O)N(Cc2ccco2)Cc2cccs2)cc1 | inactive: -1.32%
32 | CCn1cc2nc(SCC(=O)Nc3ccccc3C(F)(F)F)n(Cc3ccc(C)cc3)c(=O)c2n1 | inactive: 6.24%
33 | CC1Cc2ccccc2N1S(=O)(=O)c1nnc(NC(=O)c2cccc(F)c2)s1 (stereo unspecified) | inactive: 9.84%
34 | Cn1nc(C(=O)NCc2ccccc2Cl)c2c1-c1ccccc1S(=O)(=O)C2 | inactive: -8.2%
35 | Cc1cccc(N(CC(=O)NCCSCc2cccc(Cl)c2)S(=O)(=O)c2ccccc2)c1C | inactive: -4.72%
36 | COc1ccc(C(C)=O)cc1CSc1nc(NCCc2ccccc2)c2ccccc2n1 | inactive: 1.08%
37 | COc1ccc(-c2nn(-c3ccccc3)cc2C2NC(=O)NC(C)=C2C(=O)OC(C)C)cc1Cl (stereo unspecified) | inactive: -13.1%
38 | Cc1ccc(C(=O)c2cn(Cc3ccccc3)c3ccccc3c2=O)cc1 | inactive: 0.0583%
39 | CCc1cccc(C)c1Nc1c(-c2ccc(N(C)C)cc2)nc2cnccn12 | inactive: -12.5%
40 | Cc1ccc(NC(=O)c2ccc(N(Cc3ccccc3)S(C)(=O)=O)cc2)cc1 | inactive: -0.462%
41 | CCc1ccc(S(=O)(=O)c2nnn3c2nc(N2CCC(C(N)=O)CC2)c2cc(Cl)ccc23)cc1 | inactive: 0.422%
42 | COC(=O)c1ccc(NC(=O)NC(C)c2c(-n3cccc3)sc(C)c2C)cc1 (stereo unspecified) | inactive: 3.35%

Row | SMILES | activity change, negative = inhibition
43 | Cc1cccc(N(CC(=O)N(C)Cc2ccccc2)S(=O)(=O)c2ccccc2)c1C | inactive: -11.2%
44 | Cc1ccc(CNC(=O)c2c[nH]n3c(=O)c(Cc4ccc(F)cc4Cl)c(C)nc23)cc1 | inactive: 1.98%
45 | CCn1c(=O)c2cc(C(=O)NCCCN(C)Cc3ccccc3)sc2c2ccccc21 | inactive: -13.6%
46 | CC(C)(C)C1CCc2c(sc(NC(=O)CCC(=O)O)c2C(=O)Nc2ccccc2C(F)(F)F)C1 (stereo unspecified) | inactive: 0.973%
47 | FC(F)(F)c1cccc(N2CCN(Cc3nnc(-c4ccc5c(c4)OCO5)o3)CC2)c1 | inactive: -14.3%
48 | Cc1ccc(Cl)cc1N1CCN(C(=O)c2cccn2-c2nnc(N3CCCC3)s2)CC1 | inactive: -3.8%
49 | CCOC(=O)c1c(Nc2cc(C)cc(C)c2)nnc(-c2ccccc2)c1-c1ccccc1 | inactive: 7.93%
50 | COc1ccccc1C(=O)Nc1nc2nc(C)c(Cc3ccccc3)c(=O)n2[nH]1 | inactive: 8.06%
51 | CCOc1ccccc1C(=O)N(Cc1cccs1)c1ccc(Cl)cc1 | inactive: -9.7%
52 | Cc1ccc(C)c(CN2C(=O)c3ccccc3S(=O)c3ccc(C(=O)N4CCC(C)CC4)cc32)c1 (stereo unspecified) | inactive: -6.56%
53 | O=C(c1cc2ccc3cccnc3c2[nH]1)N1CCN(c2cccc(C(F)(F)F)c2)CC1 | inactive: 2.17%
54 | COc1ccccc1C(=O)Nc1nc2nc(-c3ccccc3)cc(=O)n2[nH]1 | inactive: -2.77%
55 | COc1cc(NC(=O)CC(c2ccc(C)cc2)N2Cc3ccccc3C2=O)cc(OC)c1 (stereo unspecified) | inactive: -2.44%
56 | Cc1cccc(CNC(=O)c2oc3c(c2C)-c2nn(Cc4cccc(Cl)c4)cc2CC3)c1 | inactive: -4.44%
57 | Cc1ccc(-c2nc3nc(C)cc(C)n3c2Nc2ccc3c(c2)OCCO3)cc1 | inactive: -7.65%
58 | CCOC(=O)N1CCc2c(sc(NCc3ccc(N(C)C)cc3)c2C(=O)Nc2ccc(OC)cc2)C1 | inactive: -21.3%
59 | CC(C)(C)c1ccc(S(=O)(=O)c2cnc(SCC(=O)Nc3ccc4c(c3)OCCO4)[nH]c2=O)cc1 | inactive: 6.06%
60 | CC(C)c1ccc(NC(=O)CSC2=Nc3ccccc3C3=NC(CCC(=O)NCc4ccco4)C(=O)N23)cc1 (stereo unspecified) | inactive: -3.36%
61 | COc1ccc(C)cc1NC(=O)COCc1cc(-c2ccc(F)cc2)on1 | inactive: -3.41%
62 | Cc1ccc(C)c(Oc2nc3c(c(=O)n(C)c(=O)n3C)n2Cc2ccccc2)c1 | inactive: -10%
63 | COc1ccccc1C(=O)Oc1c(Sc2ccccc2)c(C)nn1-c1ccccc1 | inactive: 10.6%

Row | SMILES | activity change, negative = inhibition
64 | CC(C)CCn1c(Oc2ccccc2F)nc2c1c(=O)n(C)c(=O)n2C | inactive: -1.24%
65 | Cc1ccc(Cl)cc1N1CCN(C(=O)c2ccc(CS(=O)c3ccccc3)o2)CC1 (stereo unspecified) | inactive: 0.892%
66 | Cc1ccc(C)c(N2CCN(C(=O)c3cc(S(=O)(=O)N4CCCCC4)cn3C)CC2)c1 | inactive: -7.73%
67 | Cc1cccc(OCC(=O)N(Cc2cccc(Cl)c2)Cc2ccco2)c1C | inactive: 0.566%
68 | CCCC(=O)Oc1c(Sc2ccc(Cl)cc2)c(C)nn1-c1ccccc1 | inactive: -2.71%
69 | Cc1ccc(C)c(NC(=O)Cn2c(=O)n(Cc3ccco3)c(=O)c3ccc(C(=O)NC4CCCC4)cc32)c1 | inactive: -1.83%
70 | COc1ccc(N2CCN(C(=O)c3nn(C)c4c3CSc3ccccc3-4)CC2)cc1 | inactive: -14.2%
71 | COC(=O)c1c(NC(=O)CCCOc2ccccc2)sc2c1CCC(C)C2 (stereo unspecified) | inactive: -6.06%
72 | Cc1ccc(C(=O)c2cn(Cc3ccccc3F)c3cc4c(cc3c2=O)OCO4)cc1 | inactive: -2.21%
73 | CC(C)(C)c1ccc(S(=O)(=O)c2cnc(SCC(=O)Nc3ccc(F)c(Cl)c3)[nH]c2=O)cc1 | inactive: -1.75%
74 | CN(C(=O)c1oc(=O)c2ccccc2c1-c1ccccc1)c1cccc(Cl)c1 | inactive: 0.306%
75 | CCN1CCN(CCCNC(=O)c2ccc3c(c2)sc2nc(-c4ccc(C)cc4)cn23)CC1 | inactive: -1.97%
76 | Cc1cccc(-n2ncc(C(=O)NCc3ccco3)c2C2CCN(C(=O)OC(C)(C)C)CC2)c1 | inactive: -10.2%
77 | CCOc1ccc(NC(=O)Cn2c(=O)n(Cc3ccccc3)c(=O)c3c4c(sc32)CN(C(C)=O)CC4)cc1 | inactive: -6.63%
78 | Cc1cccc(C(=O)Nc2sc3c(c2C(=O)O)CCCC3)c1 | inactive: -2.07%
79 | CCOc1ccc(Nc2c(S(=O)(=O)c3ccc(C)cc3)cnc3ccc(OC)cc23)cc1 | inactive: -6.81%
80 | COc1cccc(Nc2cc(-c3ccccc3)nc(C)n2)c1 | inactive: -0.275%
81 | O=c1cc2nc(-c3cccs3)nc(SCCOc3ccc(Cl)cc3)n2[nH]1 | inactive: 5.95%
